Results published in paper doi:10.1101/2023.04.29.538801.
These are yes or no findings as the source states them, for the method shown. Binding seen in cells or lysates may run through a third protein. Some entries that bind do so weakly or less than the wild type. Where a sequence is shown, tags or fusion partners need not be part of it.

Biological target: T1, human Adgrd1 with a C-terminal Flag epitope (human) (UniProt Q6QNK2)
T1 sequence: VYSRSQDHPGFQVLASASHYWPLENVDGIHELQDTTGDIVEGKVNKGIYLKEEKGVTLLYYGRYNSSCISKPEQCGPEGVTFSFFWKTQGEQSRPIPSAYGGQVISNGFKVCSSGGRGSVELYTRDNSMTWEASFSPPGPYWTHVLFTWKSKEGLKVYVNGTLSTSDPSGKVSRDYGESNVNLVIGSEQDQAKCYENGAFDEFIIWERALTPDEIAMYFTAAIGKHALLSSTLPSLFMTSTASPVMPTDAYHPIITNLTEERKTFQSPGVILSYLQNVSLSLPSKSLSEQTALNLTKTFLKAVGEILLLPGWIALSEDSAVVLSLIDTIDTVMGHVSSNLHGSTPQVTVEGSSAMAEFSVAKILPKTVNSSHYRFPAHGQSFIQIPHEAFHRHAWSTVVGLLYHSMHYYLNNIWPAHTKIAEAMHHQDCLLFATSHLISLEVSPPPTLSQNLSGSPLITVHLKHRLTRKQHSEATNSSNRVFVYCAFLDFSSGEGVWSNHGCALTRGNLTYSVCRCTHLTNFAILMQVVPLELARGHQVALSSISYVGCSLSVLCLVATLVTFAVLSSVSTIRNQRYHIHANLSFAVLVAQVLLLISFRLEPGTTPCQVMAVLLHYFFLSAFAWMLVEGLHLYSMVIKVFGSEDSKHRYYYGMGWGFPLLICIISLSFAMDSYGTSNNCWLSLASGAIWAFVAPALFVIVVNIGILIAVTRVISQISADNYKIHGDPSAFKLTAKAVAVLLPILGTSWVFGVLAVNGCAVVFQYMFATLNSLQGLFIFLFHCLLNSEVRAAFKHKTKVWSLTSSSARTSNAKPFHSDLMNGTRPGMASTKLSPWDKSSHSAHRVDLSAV
Assay: co-IP

Q: Which binding does the source give for “recombinant flexible tail of the human prion protein, residues 23-110 (from UniProt P04156 23-110) (domain or fragment)” here?
A: binds
